PubChem BioAssay AID1508588 – Peter MacCallum Cancer Centre | 2020

Assay: 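Which gene losses make BRAF-mutant melanoma cells more responsive to vemurafenib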 (primary screen)
Cell system: human WM266.4 melanoma cells (BRAF V600 mutant)
Reagents: siRNA pool against human genes, 40 nM
Duration: 96 h from transfection to read-out
Challenge: vemurafenib 300 nM (about IC25), added 48 h after transfection, for 48 h; comparison arm got DMSO vehicle only
Measurement: 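Cell gain (DAPI nuclei at end minus before drug, mean of two replicates) and medium lactate by absorbance per cell, both as ratio to non-targeting siRNA, also grouped into fold-change classes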
Reading the numbers: cell gain with vemurafenib: higher = more cell gain than with non-targeting siRNA; lactate per cell with vemurafenib: higher = more lactate made per cell
Call rule: 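Enhancement is called by pairing each knock-down's vehicle-arm and drug-arm fold-change classes for viability or glycolysis; which class combinations qualify is not given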
Calls: active = enhances vemurafenib effect; inactive = no enhancement seen
The whole screen tested about 18,000 reagents; below is a part drawn at random. Of all reagents, 790 (4.4%) got an active call. 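Calls rest on a combination of fold-change classes in drug and vehicle arms, not all shown here.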 A reagent listed more than once was tested more than once; the source does not tell the runs apart.

target	cell gain with vemurafenib	lactate per cell with vemurafenib	outcome
GUCY1B1 (GeneID 2983)	1.29	0.7	inactive
BAZ1A (GeneID 11177)	0.36	2.03	inactive
FKBP2 (GeneID 2286)	0.44	1.29	inactive
B3GNT9 (GeneID 84752)	0.67	0.52	inactive
GTF2F1 (GeneID 2962)	0.41	1.96	inactive
CLXN (GeneID 79645)	0.85	0.74	inactive
WFDC13 (GeneID 164237)	-0.05	-0.02	active
STAT6 (GeneID 6778)	0.14	1.14	inactive
PTK6 (GeneID 5753)	0.92	0.96	inactive
LHFPL6 (GeneID 10186)	0.44	1.46	inactive
PDZD8 (GeneID 118987)	0.74	0.66	inactive
ABCG8 (GeneID 64241)	1.07	0.51	inactive
MYT1 (GeneID 4661)	0.48	0.62	inactive
PDE4DIP (GeneID 9659)	0.66	0.32	inactive
TNXB (GeneID 7148)	0.06	0.67	active
STON1 (GeneID 11037)	0.85	0.96	inactive
CRACR2A (GeneID 84766)	-0.01	4.17	inactive
DPH2 (GeneID 1802)	0.25	1.11	inactive
ZMYND11 (GeneID 10771)	1.06	0.97	inactive
KRTAP19-5 (GeneID 337972)	0.84	1.28	inactive
C4B (GeneID 721)	0.34	1.45	inactive
HARBI1 (GeneID 283254)	0.77	1.4	inactive
SIX2 (GeneID 10736)	0.44	1.29	inactive
LRIG2 (GeneID 9860)	0.56	0.6	inactive
PSMF1 (GeneID 9491)	0.18	1.52	inactive
NUDCD2 (GeneID 134492)	0.81	0.67	inactive
YES1 (GeneID 7525)	0.69	0.91	inactive
DUSP8 (GeneID 1850)	0.5	0.91	inactive
AP1G1 (GeneID 164)	0.64	0.98	inactive
GSTM1 (GeneID 2944)	0.72	0.83	inactive
KRABD4 (GeneID 55634)	0.58	1.03	inactive
PF4V1 (GeneID 5197)	0.73	0.6	inactive
RPL21P44 (GeneID 402176)	0.44	0.66	inactive
PRRT3 (GeneID 285368)	0.44	1.55	inactive
WIPF1 (GeneID 7456)	0.19	1.75	inactive
RAP1GAP2 (GeneID 23108)	0.58	0.21	inactive
NTMT1 (GeneID 28989)	0.77	0.68	inactive
CRB1 (GeneID 23418)	0.99	0.75	inactive
LOC644006 (GeneID 644006)	1.08	0.7	inactive
LOC644006 (GeneID 644006)	0.5	0.92	inactive
GCLM (GeneID 2730)	1.22	0.9	inactive
ZC3H4 (GeneID 23211)	0.81	0.74	inactive
FBLIM1 (GeneID 54751)	0.75	0.66	inactive
MAGEH1 (GeneID 28986)	0.8	1	inactive
RNF112 (GeneID 7732)	1.1	0.75	inactive
UBE2F (GeneID 140739)	-0.02	3.59	inactive
HNRNPD (GeneID 3184)	0.39	0.96	inactive
ZNF91 (GeneID 7644)	0.63	0.47	active
TMEM63C (GeneID 57156)	0.64	0.2	inactive
BCAS3 (GeneID 54828)	1.02	0.86	inactive
VRK1 (GeneID 7443)	0.86	0.68	inactive
INO80D (GeneID 54891)	0.78	0.42	inactive
GALNT10 (GeneID 55568)	0.66	0.62	inactive
SLC10A3 (GeneID 8273)	0.37	0.97	inactive
TTR (GeneID 7276)	0.15	0.98	inactive
RTKN (GeneID 6242)	0.18	1.66	inactive
SRP68 (GeneID 6730)	0.49	1.5	inactive

Targets above whose gene name begins with P or p (6):
target	cell gain with vemurafenib	lactate per cell with vemurafenib	outcome
PTK6 (GeneID 5753)	0.92	0.96	inactive
PDZD8 (GeneID 118987)	0.74	0.66	inactive
PDE4DIP (GeneID 9659)	0.66	0.32	inactive
PSMF1 (GeneID 9491)	0.18	1.52	inactive
PF4V1 (GeneID 5197)	0.73	0.6	inactive
PRRT3 (GeneID 285368)	0.44	1.55	inactive
